{"sequences": {"note": "Amino acid sequences for entries named in this document (tags omitted). A change or cut given only in a name is not applied to a line headed by its entry.", "UniProt Q8IYB5": "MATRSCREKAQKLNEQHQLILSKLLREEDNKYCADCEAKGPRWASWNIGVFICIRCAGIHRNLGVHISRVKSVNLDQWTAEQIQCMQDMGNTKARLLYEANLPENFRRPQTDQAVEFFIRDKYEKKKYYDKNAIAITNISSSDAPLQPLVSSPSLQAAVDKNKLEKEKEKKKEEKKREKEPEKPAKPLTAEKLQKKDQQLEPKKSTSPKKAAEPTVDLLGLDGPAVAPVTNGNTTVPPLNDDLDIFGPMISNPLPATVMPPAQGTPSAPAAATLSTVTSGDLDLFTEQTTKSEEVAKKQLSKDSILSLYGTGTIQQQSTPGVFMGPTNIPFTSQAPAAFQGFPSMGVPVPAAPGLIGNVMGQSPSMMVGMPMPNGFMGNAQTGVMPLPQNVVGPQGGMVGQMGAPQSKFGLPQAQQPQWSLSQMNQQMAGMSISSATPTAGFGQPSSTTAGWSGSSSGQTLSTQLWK", "UniProt Q8IY17": "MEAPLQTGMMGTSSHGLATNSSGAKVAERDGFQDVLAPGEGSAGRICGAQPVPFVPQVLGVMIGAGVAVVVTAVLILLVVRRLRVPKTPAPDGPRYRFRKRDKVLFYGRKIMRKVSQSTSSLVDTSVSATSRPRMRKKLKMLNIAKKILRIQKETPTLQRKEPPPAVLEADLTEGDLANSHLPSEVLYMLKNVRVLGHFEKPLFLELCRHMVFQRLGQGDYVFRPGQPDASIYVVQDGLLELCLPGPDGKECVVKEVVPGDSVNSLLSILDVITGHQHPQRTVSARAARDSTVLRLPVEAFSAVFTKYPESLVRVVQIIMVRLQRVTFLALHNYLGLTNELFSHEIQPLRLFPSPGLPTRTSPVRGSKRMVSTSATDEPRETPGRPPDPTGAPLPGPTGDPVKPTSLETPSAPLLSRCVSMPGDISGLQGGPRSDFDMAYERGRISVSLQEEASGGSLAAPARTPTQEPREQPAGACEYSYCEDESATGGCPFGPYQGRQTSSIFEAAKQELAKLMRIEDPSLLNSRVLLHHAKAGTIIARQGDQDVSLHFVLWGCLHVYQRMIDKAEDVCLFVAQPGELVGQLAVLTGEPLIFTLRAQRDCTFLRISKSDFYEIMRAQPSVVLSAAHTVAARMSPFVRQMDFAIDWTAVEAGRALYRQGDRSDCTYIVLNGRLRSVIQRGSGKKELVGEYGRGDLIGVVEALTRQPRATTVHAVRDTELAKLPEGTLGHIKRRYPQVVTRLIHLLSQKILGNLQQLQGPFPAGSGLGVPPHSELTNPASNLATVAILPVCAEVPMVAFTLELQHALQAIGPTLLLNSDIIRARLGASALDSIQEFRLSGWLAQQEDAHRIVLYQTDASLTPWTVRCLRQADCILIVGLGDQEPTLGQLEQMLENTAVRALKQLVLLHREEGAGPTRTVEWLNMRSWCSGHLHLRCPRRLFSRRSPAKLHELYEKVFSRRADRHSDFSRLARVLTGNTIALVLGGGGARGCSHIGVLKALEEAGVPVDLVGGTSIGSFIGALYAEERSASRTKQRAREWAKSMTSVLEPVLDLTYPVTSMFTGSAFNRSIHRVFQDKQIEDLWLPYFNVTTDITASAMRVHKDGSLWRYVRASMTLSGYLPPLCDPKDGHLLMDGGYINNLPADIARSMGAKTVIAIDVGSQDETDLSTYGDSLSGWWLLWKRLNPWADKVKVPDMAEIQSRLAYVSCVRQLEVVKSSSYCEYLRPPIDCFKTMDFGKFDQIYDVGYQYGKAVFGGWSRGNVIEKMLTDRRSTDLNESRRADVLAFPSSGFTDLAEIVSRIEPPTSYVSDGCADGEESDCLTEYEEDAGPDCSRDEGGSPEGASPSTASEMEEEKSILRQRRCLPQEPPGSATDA", "UniProt Q8IWP9": "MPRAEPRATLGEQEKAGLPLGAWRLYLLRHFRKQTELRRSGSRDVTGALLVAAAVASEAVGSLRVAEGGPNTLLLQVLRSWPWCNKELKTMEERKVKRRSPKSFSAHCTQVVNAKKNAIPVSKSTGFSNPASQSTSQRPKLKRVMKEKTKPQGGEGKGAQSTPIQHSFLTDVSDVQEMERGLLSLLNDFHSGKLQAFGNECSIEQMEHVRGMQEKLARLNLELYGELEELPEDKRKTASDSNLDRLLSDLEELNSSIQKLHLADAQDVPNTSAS", "UniProt Q8N142": "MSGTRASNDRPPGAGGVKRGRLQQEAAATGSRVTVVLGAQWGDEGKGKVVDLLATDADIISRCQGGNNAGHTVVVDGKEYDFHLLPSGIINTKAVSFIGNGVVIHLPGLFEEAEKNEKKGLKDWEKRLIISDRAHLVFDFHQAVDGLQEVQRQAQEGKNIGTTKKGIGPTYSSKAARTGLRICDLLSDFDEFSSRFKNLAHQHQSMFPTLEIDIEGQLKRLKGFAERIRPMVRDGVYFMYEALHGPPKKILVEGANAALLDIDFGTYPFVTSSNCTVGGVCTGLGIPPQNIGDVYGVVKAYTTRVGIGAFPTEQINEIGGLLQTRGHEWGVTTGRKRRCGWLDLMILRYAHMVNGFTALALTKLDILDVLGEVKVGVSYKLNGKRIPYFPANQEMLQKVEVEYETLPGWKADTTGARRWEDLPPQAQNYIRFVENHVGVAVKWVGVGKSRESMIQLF", "UniProt Q86X53": "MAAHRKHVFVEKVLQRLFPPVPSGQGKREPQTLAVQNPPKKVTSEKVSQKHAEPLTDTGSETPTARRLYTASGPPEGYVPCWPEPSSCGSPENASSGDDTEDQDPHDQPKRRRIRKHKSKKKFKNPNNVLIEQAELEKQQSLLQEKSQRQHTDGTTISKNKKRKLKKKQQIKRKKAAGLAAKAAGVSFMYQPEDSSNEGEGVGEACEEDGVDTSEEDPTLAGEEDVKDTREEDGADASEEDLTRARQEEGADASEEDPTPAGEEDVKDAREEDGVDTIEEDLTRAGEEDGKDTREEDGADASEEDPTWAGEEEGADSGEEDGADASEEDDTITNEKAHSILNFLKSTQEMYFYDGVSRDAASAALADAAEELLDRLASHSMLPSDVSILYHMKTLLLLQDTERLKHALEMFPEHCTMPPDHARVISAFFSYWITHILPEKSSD", "UniProt Q86V21": "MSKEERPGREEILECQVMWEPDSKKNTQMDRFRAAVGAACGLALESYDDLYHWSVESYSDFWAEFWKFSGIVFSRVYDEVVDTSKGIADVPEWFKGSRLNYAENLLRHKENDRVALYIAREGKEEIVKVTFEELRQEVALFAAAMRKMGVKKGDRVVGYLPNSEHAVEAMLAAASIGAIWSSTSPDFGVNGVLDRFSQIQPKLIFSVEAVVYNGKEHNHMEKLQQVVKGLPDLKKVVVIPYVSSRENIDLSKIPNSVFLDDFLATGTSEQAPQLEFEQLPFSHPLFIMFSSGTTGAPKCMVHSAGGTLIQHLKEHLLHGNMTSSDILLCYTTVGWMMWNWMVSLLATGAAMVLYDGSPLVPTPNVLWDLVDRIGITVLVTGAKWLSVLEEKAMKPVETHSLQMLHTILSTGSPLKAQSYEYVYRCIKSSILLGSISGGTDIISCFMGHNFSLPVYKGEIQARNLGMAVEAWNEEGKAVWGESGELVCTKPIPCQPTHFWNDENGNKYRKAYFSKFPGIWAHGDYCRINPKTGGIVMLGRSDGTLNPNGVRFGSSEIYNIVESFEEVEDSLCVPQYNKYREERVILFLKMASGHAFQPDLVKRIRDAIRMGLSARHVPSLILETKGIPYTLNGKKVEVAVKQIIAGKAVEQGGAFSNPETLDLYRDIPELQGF", "UniProt Q8IV50": "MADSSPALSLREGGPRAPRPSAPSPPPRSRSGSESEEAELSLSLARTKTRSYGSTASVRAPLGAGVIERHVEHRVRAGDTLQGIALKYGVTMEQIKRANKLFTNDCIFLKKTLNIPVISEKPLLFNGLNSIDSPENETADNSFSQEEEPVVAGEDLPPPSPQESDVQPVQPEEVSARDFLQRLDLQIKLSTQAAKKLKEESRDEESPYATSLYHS", "UniProt Q8IY37": "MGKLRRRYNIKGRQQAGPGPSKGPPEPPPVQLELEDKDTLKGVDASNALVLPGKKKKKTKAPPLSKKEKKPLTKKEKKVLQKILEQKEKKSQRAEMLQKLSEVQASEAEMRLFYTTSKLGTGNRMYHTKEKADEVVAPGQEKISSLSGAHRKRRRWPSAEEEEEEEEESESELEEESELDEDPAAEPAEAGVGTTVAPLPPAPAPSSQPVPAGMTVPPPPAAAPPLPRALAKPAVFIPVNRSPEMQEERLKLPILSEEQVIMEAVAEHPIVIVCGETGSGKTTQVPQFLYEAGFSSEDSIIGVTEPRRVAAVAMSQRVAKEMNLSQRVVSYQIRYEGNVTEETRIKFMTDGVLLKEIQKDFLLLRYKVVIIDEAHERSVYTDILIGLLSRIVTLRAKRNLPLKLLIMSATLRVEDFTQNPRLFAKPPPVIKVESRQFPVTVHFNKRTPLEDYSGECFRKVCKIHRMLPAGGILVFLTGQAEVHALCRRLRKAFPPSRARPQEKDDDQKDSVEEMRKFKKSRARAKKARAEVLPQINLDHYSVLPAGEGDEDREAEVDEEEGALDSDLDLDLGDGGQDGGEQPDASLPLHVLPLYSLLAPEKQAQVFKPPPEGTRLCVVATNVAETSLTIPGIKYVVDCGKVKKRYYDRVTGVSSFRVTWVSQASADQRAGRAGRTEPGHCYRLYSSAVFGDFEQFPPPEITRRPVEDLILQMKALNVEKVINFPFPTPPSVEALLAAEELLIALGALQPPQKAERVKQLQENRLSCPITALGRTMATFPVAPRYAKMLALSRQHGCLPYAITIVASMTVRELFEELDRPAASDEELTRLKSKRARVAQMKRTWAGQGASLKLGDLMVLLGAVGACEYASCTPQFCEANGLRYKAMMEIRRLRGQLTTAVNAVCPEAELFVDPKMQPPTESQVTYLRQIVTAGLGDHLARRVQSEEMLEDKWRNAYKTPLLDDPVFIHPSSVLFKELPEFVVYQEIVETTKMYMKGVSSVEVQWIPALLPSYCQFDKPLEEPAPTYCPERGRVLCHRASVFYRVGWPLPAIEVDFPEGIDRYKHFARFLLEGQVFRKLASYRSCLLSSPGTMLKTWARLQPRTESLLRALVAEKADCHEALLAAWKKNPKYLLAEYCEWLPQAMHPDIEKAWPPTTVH", "UniProt Q86Y79": "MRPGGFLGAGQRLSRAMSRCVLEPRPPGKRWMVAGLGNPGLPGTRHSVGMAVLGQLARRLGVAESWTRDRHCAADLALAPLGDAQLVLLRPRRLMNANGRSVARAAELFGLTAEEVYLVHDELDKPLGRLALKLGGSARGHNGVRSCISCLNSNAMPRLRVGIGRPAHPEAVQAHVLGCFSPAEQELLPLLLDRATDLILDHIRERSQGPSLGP", "UniProt Q86WP2": "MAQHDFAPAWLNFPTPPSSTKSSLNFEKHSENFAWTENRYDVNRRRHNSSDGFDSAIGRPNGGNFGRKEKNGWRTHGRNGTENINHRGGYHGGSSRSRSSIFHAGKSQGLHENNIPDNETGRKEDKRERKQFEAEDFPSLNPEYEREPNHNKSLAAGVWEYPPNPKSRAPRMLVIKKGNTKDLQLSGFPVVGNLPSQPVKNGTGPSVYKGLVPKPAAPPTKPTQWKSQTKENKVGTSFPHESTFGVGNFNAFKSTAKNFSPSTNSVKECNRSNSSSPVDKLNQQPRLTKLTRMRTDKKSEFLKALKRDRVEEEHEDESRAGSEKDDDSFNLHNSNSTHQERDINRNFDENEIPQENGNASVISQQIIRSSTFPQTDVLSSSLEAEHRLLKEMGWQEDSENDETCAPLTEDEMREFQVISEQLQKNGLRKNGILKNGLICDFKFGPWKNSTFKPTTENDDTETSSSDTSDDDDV", "UniProt Q8IY22": "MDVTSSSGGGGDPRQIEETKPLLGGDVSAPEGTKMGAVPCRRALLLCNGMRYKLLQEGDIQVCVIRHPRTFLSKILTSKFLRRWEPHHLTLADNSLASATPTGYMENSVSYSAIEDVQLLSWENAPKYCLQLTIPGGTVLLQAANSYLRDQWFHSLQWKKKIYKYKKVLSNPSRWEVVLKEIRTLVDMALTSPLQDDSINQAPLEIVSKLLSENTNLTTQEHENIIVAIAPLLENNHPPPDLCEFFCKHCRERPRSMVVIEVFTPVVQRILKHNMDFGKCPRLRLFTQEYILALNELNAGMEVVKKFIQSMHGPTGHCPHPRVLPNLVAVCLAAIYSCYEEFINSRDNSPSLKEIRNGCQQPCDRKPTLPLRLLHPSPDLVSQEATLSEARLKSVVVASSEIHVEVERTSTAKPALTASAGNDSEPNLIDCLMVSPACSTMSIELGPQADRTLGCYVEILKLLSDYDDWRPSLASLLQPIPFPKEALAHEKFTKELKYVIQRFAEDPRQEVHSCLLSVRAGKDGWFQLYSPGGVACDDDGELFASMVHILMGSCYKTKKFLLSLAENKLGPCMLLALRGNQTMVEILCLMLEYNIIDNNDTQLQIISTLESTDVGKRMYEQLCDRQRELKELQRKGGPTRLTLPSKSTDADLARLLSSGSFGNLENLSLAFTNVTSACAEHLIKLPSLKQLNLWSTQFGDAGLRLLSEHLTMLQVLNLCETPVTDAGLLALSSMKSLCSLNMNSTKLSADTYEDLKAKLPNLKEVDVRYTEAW"}, "source": "the supplement of paper PMC12819154", "about": "“High-throughput peptide-centric local stability assay extends protein–ligand identification to membrane proteins, tissues and bacteria” (Nature Structural & Molecular Biology, 2025)", "note": "The other results are listed elsewhere or left out. Most entries show no effect beyond the scatter of the controls.", "data": [{"compound": "Cc1nc(Nc2ncc(C(=O)Nc3c(C)cccc3Cl)s2)cc(N2CCN(CCO)CC2)n1 [dasatinib]", "assay": "log2 fold change of tryptic peptide abundance, ligand vs vehicle (limited proteolysis) (log2 ratio); higher = more trypsin-susceptible (destabilized)", "conditions": "ligand concentration: 5 uM; sample: K562 cleared lysate", "values": [{"target": "ANKMY2 (peptide sequence: MHYISCIFQK, peptide start residue: 222) (UniProt Q8IV38)", "log2 fold change": 0.25}, {"target": "UniProt Q86YB8 (peptide sequence: LQTQGLGTALK, peptide start residue: 403)", "log2 fold change": -0.00297}, {"target": "UniProt Q8IYD8 (peptide sequence: KLEEVVIEHFK, peptide start residue: 452)", "log2 fold change": -0.459}, {"target": "DTX2 (peptide sequence: TASVFGTHQAFAPYNKPSLSGAR, peptide start residue: 234) (UniProt Q86UW9)", "log2 fold change": -0.168}, {"target": "RPS19BP1 (peptide sequence: GLELLAASEAPRDPPGQAK, peptide start residue: 9) (UniProt Q86WX3)", "log2 fold change": -0.989}, {"target": "COMMD2 (peptide sequence: LDVQLASR, peptide start residue: 131) (UniProt Q86X83)", "log2 fold change": -0.111}, {"target": "CNPY4 (peptide sequence: SREVLELGQVLDTGKR, peptide start residue: 58) (UniProt Q8N129)", "log2 fold change": 0.251}, {"target": "CEP97 (peptide sequence: MAPAYLPR, peptide start residue: 163) (UniProt Q8IW35)", "log2 fold change": -0.373}, {"target": "SMAP1 (peptide sequence: KDQQLEPK, peptide start residue: 196) (UniProt Q8IYB5)", "log2 fold change": 0.22}, {"target": "PNPLA6 (peptide sequence: STDLNESR, peptide start residue: 1272) (UniProt Q8IY17)", "log2 fold change": -0.547}, {"target": "UNC5B (peptide sequence: ICNSLDAPNSR, peptide start residue: 866) (UniProt Q8IZJ1)", "log2 fold change": -0.05}, {"target": "RPUSD2 (peptide sequence: TNEELLR, peptide start residue: 407) (UniProt Q8IZ73)", "log2 fold change": -0.149}, {"target": "ULK2 (peptide sequence: IADFGFAR, peptide start residue: 163) (UniProt Q8IYT8)", "log2 fold change": -0.0176}, {"target": "CCDC28A (peptide sequence: TASDSNLDR, peptide start residue: 237) (UniProt Q8IWP9)", "log2 fold change": -0.0887}, {"target": "MYO18B (peptide sequence: DMLLSPTLRPR, peptide start residue: 2373) (UniProt Q8IUG5)", "log2 fold change": -0.583}, {"target": "PLEKHM2 (peptide sequence: SRSDEEASPLHPACSQKK, peptide start residue: 327) (UniProt Q8IWE5)", "log2 fold change": 0.421}, {"target": "UniProt Q86XN6 (peptide sequence: IHTEDNAYK, peptide start residue: 431)", "log2 fold change": 0.346}, {"target": "UniProt Q8N142 (peptide sequence: VTVVLGAQWGDEGKGK, peptide start residue: 30)", "log2 fold change": 0.25}, {"target": "PIM3 (peptide sequence: ADKESFEK, peptide start residue: 31) (UniProt Q86V86)", "log2 fold change": -0.255}, {"target": "UniProt Q86XE0 (peptide sequence: MKQELEAEYLAIFKK, peptide start residue: 125)", "log2 fold change": -0.188}, {"target": "AMN1 (peptide sequence: EVLEQLVGPNK, peptide start residue: 239) (UniProt Q8IY45)", "log2 fold change": 0.167}, {"target": "UniProt Q8IZX4 (peptide sequence: NIENMLQNK, peptide start residue: 1103)", "log2 fold change": -0.513}, {"target": "ZGRF1 (peptide sequence: SKAQILALLK, peptide start residue: 251) (UniProt Q86YA3)", "log2 fold change": -0.751}, {"target": "ERICH1 (peptide sequence: LFPPVPSGQGK, peptide start residue: 17) (UniProt Q86X53)", "log2 fold change": 0.298}, {"target": "AACS (peptide sequence: FSGIVFSR, peptide start residue: 68) (UniProt Q86V21)", "log2 fold change": 0.525}, {"target": "CCDC25 (peptide sequence: MNNVNVVYTPWSNLKK, peptide start residue: 85) (UniProt Q86WR0)", "log2 fold change": -0.548}, {"target": "UniProt Q86YF9 (peptide sequence: EELQELK, peptide start residue: 777)", "log2 fold change": -0.0912}, {"target": "LYSMD2 (peptide sequence: AGDTLQGIALK, peptide start residue: 77) (UniProt Q8IV50)", "log2 fold change": 0.0804}, {"target": "DHX37 (peptide sequence: ADCHEALLAAWKK, peptide start residue: 1114) (UniProt Q8IY37)", "log2 fold change": 0.524}, {"target": "UniProt Q8IYK4 (peptide sequence: TLYEQEIEVK, peptide start residue: 362)", "log2 fold change": 0.218}, {"target": "UniProt Q8IV42 (peptide sequence: YEVYQLAR, peptide start residue: 161)", "log2 fold change": -0.117}, {"target": "KBTBD6 (peptide sequence: EACASFLAR, peptide start residue: 158) (UniProt Q86V97)", "log2 fold change": 0.7}, {"target": "PTRH1 (peptide sequence: HSVGMAVLGQLAR, peptide start residue: 46) (UniProt Q86Y79)", "log2 fold change": -0.00544}, {"target": "CEP57L1 (peptide sequence: DISIQLSSAQSR, peptide start residue: 114) (UniProt Q8IYX8)", "log2 fold change": 0.555}, {"target": "GPBP1 (peptide sequence: SQGLHENNIPDNETGR, peptide start residue: 107) (UniProt Q86WP2)", "log2 fold change": 0.325}, {"target": "CMIP (peptide sequence: SVVVASSEIHVEVER, peptide start residue: 394) (UniProt Q8IY22)", "log2 fold change": -0.633}, {"target": "HEATR5A (peptide sequence: SHPFTNPR, peptide start residue: 1209) (UniProt Q86XA9)", "log2 fold change": -0.433}]}]}
